Assay [1] has as its target B-Myb-Flag (LV203-B-Myb-Flag) (human) (UniProt P10244). The assay is described as follows: co-IP; HCT116 cells co-transfected with LV203-B-Myb-Flag and pcDNA3.0-E2F2, whole cell lysates 48 h after transfection, anti-Flag immunoprecipitates blotted for E2F2.
Assay [2] concerns the target Flag-B-Myb (LV105-Flag-B-Myb) (human) (UniProt P10244). The assay is described as follows: co-IP; HEK293 cells transiently co-transfected with LV105-Flag-B-Myb or pCDH-puro-HA-E2F2 and the indicated deletion mutants, whole cell lysates 48 h after transfection.
The target in assay [3] is B-Myb in HCT116 and RKO cells (proximity ligation assay) (human (in HCT116 and RKO cells)) (UniProt P10244). The assay is described as follows: proximity ligation; in situ PLA in HCT116 and RKO cells with antibodies against B-Myb and E2F2; either antibody alone as control.
In assay [4] the target is B-Myb amino acid 1-561 region (deletion mutant) (human) (UniProt P10244). The assay is described as follows: co-IP; HEK293 cells transiently co-transfected with LV105-Flag-B-Myb or pCDH-puro-HA-E2F2 and the indicated deletion mutants, whole cell lysates 48 h after transfection.

By UniProt entry, the sequences of proteins in these tests, tags left out. Where a name states a change or a piece, a line headed by the entry shows the natural chain unless it says otherwise. Residues count along the entry.
UniProt P10244: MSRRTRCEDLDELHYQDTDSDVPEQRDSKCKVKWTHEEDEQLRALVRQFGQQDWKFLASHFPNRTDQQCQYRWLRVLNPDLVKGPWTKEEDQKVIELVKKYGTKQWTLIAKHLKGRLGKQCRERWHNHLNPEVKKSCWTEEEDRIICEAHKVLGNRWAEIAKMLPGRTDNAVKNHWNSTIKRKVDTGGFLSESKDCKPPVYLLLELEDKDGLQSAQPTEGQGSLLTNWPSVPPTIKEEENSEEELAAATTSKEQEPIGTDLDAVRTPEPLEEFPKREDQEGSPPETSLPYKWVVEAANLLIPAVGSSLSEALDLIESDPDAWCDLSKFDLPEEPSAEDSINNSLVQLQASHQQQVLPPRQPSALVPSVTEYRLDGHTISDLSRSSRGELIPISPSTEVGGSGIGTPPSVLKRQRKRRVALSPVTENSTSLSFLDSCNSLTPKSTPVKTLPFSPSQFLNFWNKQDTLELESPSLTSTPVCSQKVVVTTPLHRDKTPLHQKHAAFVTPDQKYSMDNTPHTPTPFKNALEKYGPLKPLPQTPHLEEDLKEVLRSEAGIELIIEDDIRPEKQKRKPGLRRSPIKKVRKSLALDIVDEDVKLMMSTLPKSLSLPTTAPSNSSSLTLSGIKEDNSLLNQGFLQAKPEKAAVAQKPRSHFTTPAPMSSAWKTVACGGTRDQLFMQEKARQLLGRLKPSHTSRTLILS
B-Myb amino acid 1-561 region (deletion mutant): residues 1-561 of P10244
UniProt Q14209: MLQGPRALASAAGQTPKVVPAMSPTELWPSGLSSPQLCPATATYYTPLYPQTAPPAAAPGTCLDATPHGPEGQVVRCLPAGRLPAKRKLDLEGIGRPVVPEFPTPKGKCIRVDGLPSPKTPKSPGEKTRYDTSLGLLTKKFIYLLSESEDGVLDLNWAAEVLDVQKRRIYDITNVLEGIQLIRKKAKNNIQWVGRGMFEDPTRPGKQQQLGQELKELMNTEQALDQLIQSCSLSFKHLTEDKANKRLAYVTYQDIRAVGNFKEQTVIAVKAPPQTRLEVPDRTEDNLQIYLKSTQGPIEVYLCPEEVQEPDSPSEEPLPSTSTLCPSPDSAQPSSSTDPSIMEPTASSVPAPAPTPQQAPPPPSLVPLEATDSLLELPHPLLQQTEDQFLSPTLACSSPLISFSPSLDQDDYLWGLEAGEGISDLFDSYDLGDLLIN

These are yes or no findings as the source states them, for the method shown. Binding seen in cells or lysates may run through a third protein. Some results given as binding are weak or reduced against the parent protein; the word gives no strength.

With “E2F2 (pcDNA3.0-E2F2) (from UniProt Q14209 1-437)”, the binding result in assay [1] is reported as “binds”.
With “E2F2 amino acid 1-244 region (deletion mutant) (from UniProt Q14209 1-244) (domain or fragment)”, in assay [2], the binding result is reported as “binds”.
Take “E2F2 in HCT116 and RKO cells (proximity ligation assay) (from UniProt Q14209 1-437)”: the binding entry in assay [3] is “binds”.
Regarding “HA-E2F2 (pCDH-puro-HA-E2F2) (from UniProt Q14209 1-437)”, in assay [4], the binding result was “binds”.
